Measured values from patent publication US20090326053A1, “DIAGNOSTIC USES OF FOLLISTATIN-LIKE 1” (TRUSTEES OF BOSTON UNIVERSITY, priority 2008, published 2009).
At least one structure is not confirmed: it was looked up by name or label, or the drawing left a doubt.

Columns and labels:
HUVECs [1] = assay: Differentiation assay: network formation on Matrigel; assay type: cell-based, human; settings: Ad-dnAkt MOI 10; LY294002 10 μM; L-NAME 1 mg/ml
HUVECs [2] = assay: Migration assay: modified Boyden chamber; assay type: cell-based, human; settings: Ad-dnAkt MOI 10; LY294002 10 μM; L-NAME 1 mg/ml
[3] = system: neonatal rat ventricular myocytes (NRVMs); assay: TUNEL staining of NRVMs after hypoxia/reoxygenation (H/R); assay type: cell-based; settings: inhibitor 10 μmol/L, 3 hours prior to H/R; P<0.05
Description: (§1) Myocyte cultures. Primary cultures of neonatal rat ventricular myocytes (NRVCs) were prepared and incubated in Dulbecco's modified Eagle's medium (DMEM) supplemented with 7% Fetal Calf Serum (FCS)^42. Eighteen to 24 hours after preparation, cells were transfected with adenoviral vector at a multiplicity of infection (MOI) of 50 in DMEM without serum for 16 hours and incubated in DMEM without serum for more than 12 hours. Hypoxic conditions were generated using a GasPak system (Becton Dickinson) as described previously. For hypoxia/reoxygenation studies, cells were exposed 12 hr hypoxia followed by 24 hr reoxygenation.
TUNEL staining. TUNEL staining for cultured cardiac myocytes was performed using the In Situ Cell Death detection kit (Roche) as described previously^2 with some modifications. In brief, cells are fixed by 4% paraformaldehyde in PBS, permeabilized with 0.1% Triton X-100 and incubated with anti-sarcomeric actinin antibody for 60 min followed by incubation with Cy3-conjugated anti-mouse IgG antibody. Cells were then incubated with TUNEL staining solution for 1 hr according to the manufacture's protocol. DAPI was used for nuclear staining. […] TUNEL positive myocytes were counted in randomly selected three fields of the slide and the experiments were repeated three times in duplicates.

[4] = system: Akt, eNOS, GSK-3β, ERK phosphorylation in HUVECs; assay: Western blot of Akt-eNOS signaling in HUVECs; assay type: cell-based, human; settings: Ad-dnAkt MOI 10; LY294002 10 μM; with Ad-Fstl1
[5] = system: neonatal rat ventricular myocytes (NRVMs); assay: Nucleosome fragmentation ELISA in NRVMs; assay type: cell-based; settings: inhibitor 10 μmol/L, 3 hours prior to H/R
Description: as §1
Detection of nucleosome fragmentation by ELISA. Nucleosome fragmentation was assessed by ELISA using Cell Death Detection kit (Roche) according to the manufacture's protocol. Cardiac myocytes were seeded in 96-well plates, transfected with adenoviral vector and exposed to H/R. In one assay, 8 wells are used for one group and assays are repeated three times. The extent of nucleosome fragmentation of each group was expressed as relative value in comparison with the value of control group (Ad-βgal transfected cells without H/R).

With O=c1cc(N2CCOCC2)oc2c(-c3ccccc3)cccc12 [LY294002] the “Ad-Fstl1-induced network formation in presence of inhibitor” value (HUVECs [1]) was “blocked”, the “Ad-Fstl1-stimulated endothelial cell migration in presence of inhibitor” value (HUVECs [2]) was “blocked” and the “protective action of Ad-Fstl1 on TUNEL positive cells after pre-incubation with inhibitor” value [3] was “partially attenuated”. The “Fstl1-induced Akt and eNOS phosphorylation in presence of inhibitor” value [4] was “abolished” and the “inhibitory effect of Fstl1 on nucleosome fragmentation after treatment with inhibitor” value [5] was “significantly attenuated”.
